Measured values taken from the supplement of paper PMC3741180, “A Novel High Throughput Biochemical Assay to Evaluate the HuR Protein-RNA Complex Formation” (PLoS ONE, 2013).
The other results are listed elsewhere or left out. Single values are uncertain here, since repeats match poorly.

Protein sequences, listed by entry. Tags and fused reporters are not part of them.
UniProt Q15717, whole entry: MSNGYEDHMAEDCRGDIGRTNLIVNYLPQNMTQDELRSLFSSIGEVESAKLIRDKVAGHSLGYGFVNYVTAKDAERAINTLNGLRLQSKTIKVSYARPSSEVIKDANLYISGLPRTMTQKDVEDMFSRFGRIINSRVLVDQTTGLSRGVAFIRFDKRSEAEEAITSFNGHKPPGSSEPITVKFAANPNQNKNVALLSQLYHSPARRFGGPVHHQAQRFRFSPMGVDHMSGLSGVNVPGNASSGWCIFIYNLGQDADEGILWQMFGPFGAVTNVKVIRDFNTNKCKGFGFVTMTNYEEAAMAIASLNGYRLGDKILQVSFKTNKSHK

The compounds below were run against HuR (ELAVL1) - TNFalpha ARE RNA complex (UniProt Q15717) (assay: AlphaScreen HuR-RNA complex signal Z-score relative to positive (Bi-TNF, DMSO) controls (Z-score (SD units of positive control)); higher = more complex signal). Settings: screen stage: primary screen; compound concentration: 25 nM.

Row | Compound | AlphaScreen HuR-RNA complex signal Z-score
1 | COc1ccc(-c2cc(=O)c3c(O)cc(OC)cc3o2)cc1 | -0.544
2 | CC(C)=CCC/C(C)=C/CC/C(C)=C/CC/C(C)=C/CO | 0.771
3 | CCN(CC)Cc1cc(Nc2ccnc3cc(Cl)ccc23)ccc1O | 0.315
4 | OC[C@H]1O[C@@](CO)(O[C@H]2O[C@H](CO)[C@@H](O)[C@H](O)[C@H]2O)[C@@H](O[C@H]2O[C@H](CO)[C@@H](O)[C@H](O)[C@H]2O)[C@@H]1O | 1.7
5 | O=C1CCC(N2C(=O)c3ccccc3C2=O)C(=O)N1 (stereo unspecified) | 1.08
6 | CC1(C)C[C@@H]2C(=O)CC[C@H]3O[C@]3(C)CC[C@H]21 | 1.61
7 | CCN(CC)CCNC(=O)COc1ccc(OC)cc1 | 0.132
8 | CC(=O)OCC1=C(C(=O)O)N2C(=O)[C@@H](NC(=O)Cc3cccs3)[C@H]2SC1 | -3.77
9 | CC(C)(C)NCC(O)c1ccc(O)c(CO)c1 (racemic) | 1.03
10 | CCOc1ccc(NC(=O)CC(C)O)cc1 (stereo unspecified) | -1.2
11 | COc1c(O)cc2oc3cc(O)c(CC=C(C)C)c(O)c3c(=O)c2c1CC=C(C)C [alpha-MANGOSTIN] | -0.329
12 | C=CCCCCCCCCC(=O)O | -3.65
13 | COC(=O)C[C@H]1C(C)(C)[C@@H](OC(C)=O)[C@@H]2CC3C4CC(=O)O[C@@H](c5ccoc5)[C@]4(C)CCC3[C@@]1(C)C2=O (stereo partly specified) | 0.203
14 | CC1(C)S[C@@H]2[C@H](NC(=O)Cc3ccccc3)C(=O)N2[C@H]1C(=O)O | 7.45
15 | CCC(C)n1ncn(-c2ccc(N3CCN(c4ccc(OCC5COC(Cn6cncn6)(c6ccc(Cl)cc6Cl)O5)cc4)CC3)cc2)c1=O (stereo unspecified) | 1.91
16 | COc1ccc(/C=C/C(=O)c2cc(O)ccc2O)cc1 | -0.67
17 | Cc1cccc(Nc2ccccc2C(=O)O)c1C | 0.665
18 | C=CCSCC=C | 1.33
19 | CC(N)C(=O)OC(C)(C)Cc1ccc(Cl)cc1 (stereo unspecified) | 1.26
20 | O=C1c2ccccc2C(=O)C1(O)C1(O)C(=O)c2ccccc2C1=O | -2.01
21 | CC[n+]1c(-c2ccccc2)c2cc(N)ccc2c2ccc(N)cc21 | 4.2
22 | O=C1OC(CN2CCOCC2)CN1/N=C/c1ccc([N+](=O)[O-])o1 (stereo unspecified) | -0.91

Looked up one by one from the list above, 4 records:
Row | Compound | AlphaScreen HuR-RNA complex signal Z-score
10 | CCOc1ccc(NC(=O)CC(C)O)cc1 (stereo unspecified) | -1.2
19 | CC(N)C(=O)OC(C)(C)Cc1ccc(Cl)cc1 (stereo unspecified) | 1.26
21 | CC[n+]1c(-c2ccccc2)c2cc(N)ccc2c2ccc(N)cc21 | 4.2
20 | O=C1c2ccccc2C(=O)C1(O)C1(O)C(=O)c2ccccc2C1=O | -2.01

More entries:

Row | Compound | AlphaScreen HuR-RNA complex signal Z-score
23 | C[n+]1ccccc1C=NO | 2.73
24 | CNCCCN1c2ccccc2CCc2ccccc21 | -2.63
25 | O=C(O)[C@]1(O)C[C@@H](O)[C@@H](O)[C@H](O)C1 | 0.0865
26 | COC(=O)C1=C(C)NC(C)=C(C(=O)OCC(C)C)C1c1ccccc1[N+](=O)[O-] (stereo unspecified) | -2.02
27 | O=c1cc(-c2ccc(O)cc2)oc2cc(O)ccc12 | -0.314
28 | COC(=O)C1=C(C)NC(C)=C(C(=O)OCCN(C)Cc2ccccc2)C1c1cccc([N+](=O)[O-])c1 (stereo unspecified) | 1.03
29 | CC(C)=CCc1c2c(c3occ(-c4ccc(O)cc4)c(=O)c3c1O)C=CC(C)(C)O2 | -2.83
30 | Cc1ccccc1C(OCCN(C)C)c1ccccc1 (stereo unspecified) | 3.6
31 | CC(=O)OC(C)(C)[C@@H]1Cc2cc3ccc(=O)oc3cc2O1 | 0.808
32 | O=C1CCc2ccc(OCCCCN3CCN(c4cccc(Cl)c4Cl)CC3)cc2N1 | -0.222
33 | CN(C)CCOC(c1ccc(Cl)cc1)c1ccccn1 (stereo unspecified) | 0.312
34 | NC(=O)NC1NC(=O)NC1=O (stereo unspecified) | -0.673
35 | C[C@@H]1CC[C@@]23CCC4(C)[C@@](C=CC5[C@@]6(C)CCC(=O)C(C)(C)C6CC[C@]54C)(OC2=O)C3[C@H]1C (stereo partly specified) | 1.59
36 | COc1c2ccoc2cc2oc(=O)ccc12 | 2.15
37 | CCN(CC)CCOc1ccc(C(=C(Cl)c2ccccc2)c2ccccc2)cc1 | -6.23
38 | CC1(C)CC[C@]2(C(=O)O)CC[C@]3(C)C(=CCC4[C@@]5(C)CC[C@@H](O)C(C)(C)C5CC[C@]43C)C2C1 (stereo partly specified) | 1.95
39 | CCCCNc1ccc(C(=O)OCCN(C)C)cc1 | 7.51
40 | CN1CCOC(c2ccccc2)c2ccccc2C1 (stereo unspecified) | 0.964
41 | N=C(N)NCCCCN | 0.988
42 | CN1CCC(=C2c3ccccc3CCc3sccc32)CC1 | -0.0929
43 | Cc1cnc(C(=O)NCCc2ccc(S(=O)(=O)NC(=O)NC3CCCCC3)cc2)cn1 | 1.8
44 | C=C1C2CC[C@@]3(C)[C@H](c4ccoc4)OC(=O)C[C@]13O[C@H]1CC(=O)C(C)(C)[C@H](C(O)C(=O)OC)[C@@]21C (stereo partly specified) | 0.727

Row | Compound | AlphaScreen HuR-RNA complex signal Z-score
45 | CCc1ccc2c(O)c3c(cc2c1C(=O)OC)C(=O)c1c(O)ccc(O)c1C3=O | -4.97
46 | CC(=O)O[C@H]1C[C@@H](OC(C)=O)C(C)(C)[C@@H]2C[C@@H](OC(C)=O)[C@@]3(C)C4=CC(=O)O[C@@H](c5ccoc5)[C@]4(C)CC[C@@H]3[C@@]12C | -0.0498
47 | CC(O)(P(=O)(O)O)P(=O)(O)O | 1.49
48 | CC(C)Cc1ccc(C(C)C(=O)O)cc1 (stereo unspecified) | -2.4
49 | COC1=CC(=O)C=C(OC)C1=O | -4.9
50 | COc1ccc(C(=O)c2ccccc2O)c(O)c1 | -3.1
51 | COCCc1ccc(OCC(O)CNC(C)C)cc1 (stereo unspecified) | 2.56
52 | CC1=C(C/C=C(\C)CCC[C@H](C)CCC[C@H](C)CCCC(C)C)C(=O)c2ccccc2C1=O | 0.649
53 | O=c1c(O)c(-c2ccc(O)c(O)c2)oc2cc(O)cc(O)c12 | -1.42
54 | O=C(O)C1(C(=O)O)CCC1.[NH2-].[NH2-].[Pt+2] | 0.45
55 | CN[C@@H]1[C@H](O[C@H]2[C@H](O[C@H]3[C@H](O)[C@@H](O)[C@H](NC(=N)N)[C@@H](O)[C@@H]3NC(=N)N)O[C@@H](C)[C@]2(O)CO)O[C@@H](CO)[C@H](O)[C@H]1O | -5.94
56 | NCc1ccc(S(N)(=O)=O)cc1 | 0.301
57 | COc1cc2oc3cc(OC)c(OC)c(CC=C(C)C)c3c(=O)c2c(OC)c1CC=C(C)C | 0.435
58 | CCc1oc2ccccc2c1C(=O)c1cc(Br)c(O)c(Br)c1 | 1.76
59 | CC/C(=C(\c1ccccc1)c1ccc(OCCN(C)C)cc1)c1ccccc1 | 4.48
60 | C#C[C@]1(O)CC[C@H]2[C@@H]3CCC4=C(CCC(=O)C4)[C@H]3CC[C@@]21C | 5.04
61 | COc1cc(OC)c(-c2c(OC)cc(OC)cc2OC)c(OC)c1 | 2.36
62 | CC(C)(C)NCC(O)c1cc(O)cc(O)c1 (stereo unspecified) | 6.83
63 | COc1ccc2c(c1)O[C@@H]1COc3cc(OC)c(OC)cc3[C@@H]1C2=O | -0.584
64 | CC[N+](CC)(CC)CCOc1cccc(OCC[N+](CC)(CC)CC)c1OCC[N+](CC)(CC)CC | -2.25
65 | CCOC(=O)[N-]c1c[n+](N2CCOCC2)no1 | -0.274
66 | CCOc1ccc(NC(C)=O)cc1 | -0.905
